Patent US20190352367A1
These are yes or no findings as the source states them, for the method shown. Some results given as binding are weak or reduced against the parent protein; the word gives no strength.

The chains behind the UniProt entries cited, without tags or fusion partners.
UniProt Q05397: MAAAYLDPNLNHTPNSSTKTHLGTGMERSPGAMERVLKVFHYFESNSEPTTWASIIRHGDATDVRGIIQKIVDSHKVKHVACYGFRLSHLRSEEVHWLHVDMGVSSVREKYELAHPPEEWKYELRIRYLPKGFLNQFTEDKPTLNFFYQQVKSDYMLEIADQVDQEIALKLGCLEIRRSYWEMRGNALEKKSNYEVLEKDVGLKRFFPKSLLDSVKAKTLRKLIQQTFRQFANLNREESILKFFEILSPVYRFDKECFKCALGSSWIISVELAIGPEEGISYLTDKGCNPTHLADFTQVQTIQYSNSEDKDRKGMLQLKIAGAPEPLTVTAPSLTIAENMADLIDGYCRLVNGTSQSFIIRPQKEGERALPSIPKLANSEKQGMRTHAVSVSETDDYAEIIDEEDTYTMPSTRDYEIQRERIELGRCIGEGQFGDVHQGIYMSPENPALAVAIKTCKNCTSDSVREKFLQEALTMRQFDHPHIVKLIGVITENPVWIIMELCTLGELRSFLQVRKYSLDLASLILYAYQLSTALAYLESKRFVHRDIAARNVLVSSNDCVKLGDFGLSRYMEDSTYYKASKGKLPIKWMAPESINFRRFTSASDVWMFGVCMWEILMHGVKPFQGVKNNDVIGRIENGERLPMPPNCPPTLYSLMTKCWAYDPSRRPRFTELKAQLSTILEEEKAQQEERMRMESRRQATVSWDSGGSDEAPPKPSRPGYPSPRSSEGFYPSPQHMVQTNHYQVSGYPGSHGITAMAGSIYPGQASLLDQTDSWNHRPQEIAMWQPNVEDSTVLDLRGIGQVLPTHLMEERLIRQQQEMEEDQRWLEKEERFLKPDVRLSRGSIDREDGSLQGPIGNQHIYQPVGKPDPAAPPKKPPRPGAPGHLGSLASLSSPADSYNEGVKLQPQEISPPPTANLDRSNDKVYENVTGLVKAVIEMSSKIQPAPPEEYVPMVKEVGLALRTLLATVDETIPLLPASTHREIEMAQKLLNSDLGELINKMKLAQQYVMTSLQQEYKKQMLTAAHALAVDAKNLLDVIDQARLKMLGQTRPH
UniProt Q9H9S0: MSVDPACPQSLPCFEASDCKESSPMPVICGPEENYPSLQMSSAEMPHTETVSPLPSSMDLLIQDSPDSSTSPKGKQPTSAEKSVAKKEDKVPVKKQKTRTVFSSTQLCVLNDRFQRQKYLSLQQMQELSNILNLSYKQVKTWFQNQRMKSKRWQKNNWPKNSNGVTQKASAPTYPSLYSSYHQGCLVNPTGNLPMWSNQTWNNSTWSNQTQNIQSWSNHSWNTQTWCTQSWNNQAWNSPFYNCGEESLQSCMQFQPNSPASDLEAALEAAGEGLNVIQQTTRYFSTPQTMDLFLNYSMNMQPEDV

Assays:
[1] = molecular target: Focal Adhesion Kinase (FAK), SPR ligand (UniProt Q05397); test: SPR, Cx26 peptides 1 nM to 100 µM against buffer control
[2] = molecular target: Nanog transcription factor (NANOG), SPR ligand (UniProt Q9H9S0); test: as above
[3] = molecular target: Focal Adhesion Kinase (FAK), SPR ligand (UniProt Q05397); test: SPR, Cx26 C-terminal peptide as analyte (1 nM to 100 µM by the legend) over FAK, against buffer control
[4] = molecular target: Nanog transcription factor (NANOG), SPR ligand (UniProt Q9H9S0); test: SPR, Cx26 C-terminal peptide as analyte (1 nM to 100 µM by the legend) over NANOG, against buffer control

Measured: binding

RYCSGKSKKPV [Cx26 blocking peptide 5 (C-terminus)]
binds: all assays above
